# Assay results published in PubChem BioAssay AID624297 (National Center for Advancing Translational Sciences (NCATS), 2012).
# Among all 340,000 compounds or so, about 6,200 (1.8%) were called active. The shares of active, inactive and inconclusive entries below differ from those in the screen. The call rests on the fitted dose curve; in most records, active means well fitted activation curve with a large enough effect; inconclusive means small, poorly fitted or top-dose-only effect; inactive means no such curve, though single readings can be large or run the other way. Where the call is inconclusive, the potency comes from a doubtful curve fit.
# Experiment: A quantitative high throughput screen for small molecules that induce DNA re-replication in SW480 colon adenocarcinoma cells. Further: nearly all actives have a fitted effect of over 55% in size. On re-replication activation: % of control where 0% means no effect.
# Settings: Hoechst DNA content imaging, 48 h; re-replication activation: at 46.1 µM (top of the series) unless noted
# How it was run: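 Cells (250 per well) received 23 nL compound or DMSO by pin tool and were kept 48 hr at 37 C, 5% CO2. Nuclei were then stained with Hoechst for 40 min and scanned for DNA content.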
# Potency means the concentration at half of the fitted maximal effect.
SMILES,Potency,re-replication activation
CN1CCN(c2nc(-c3ccccn3)nc3ccccc23)CC1,"inconclusive: 29.1 µM [activator, single point]",–
CCCc1ccc(C2C3=C(CC(C)(C)CC3=O)NC3=C2C(=O)c2ccccc23)cc1 (stereo not given),–,inactive: -3.36%
COc1ccc(Cl)cc1NC(=S)NCCc1c[nH]c2ccccc12,"inconclusive: 29.1 µM [activator, single point]",–
Cc1ccc(OCCOCCOc2cccc3cccnc23)c(Br)c1,"inconclusive: 0.0092 µM [activator, full curve, poor fit]",–
O=C(CCc1ccccc1)N=C1SC2CS(=O)(=O)CC2N1Cc1ccc(F)cc1 (stereo not given),"inconclusive: 16.4 µM [activator, partial curve, poor fit]",–
CS(=O)(=O)N(CC(=O)Nc1ccccc1Sc1ccccc1)c1ccc(F)cc1,"inconclusive: 2.06 µM [activator, full curve, poor fit]",–
CCn1c(/C=C/c2c[nH]c3ccccc23)nc2ccccc2c1=O,"inconclusive: 29.1 µM [activator, partial curve, poor fit]",–
O=C(CN1CCN(C(=O)CCC(=O)N2CCC(c3ccccc3)=N2)CC1)Nc1ccc(F)cc1,"inconclusive: 29.1 µM [activator, partial curve, poor fit]",–
CC(=O)O[C@H]1CC[C@H]2[C@@H]3CCc4cc(O)ccc4[C@H]3CC[C@]12C,"inconclusive: 0.184 µM [activator, full curve, poor fit]",–
CC1NC(=O)NC1CCCCCC(=O)Nc1ccc(F)c(Cl)c1 (stereo not given),–,inactive: -5.5%
O=C(/C=C/c1ccco1)Nc1ccccc1N1CCCCC1,"inconclusive: 0.517 µM [activator, full curve, poor fit]",–
Cc1cc(C)cc(NC(=O)CSc2nncn2-c2ccccn2)c1,–,inactive: -2.71%
O=C(NC1CCCCC1)c1cc(-c2ccc(Cl)cc2)on1,"inconclusive: 29.1 µM [activator, single point]",–
COC(=O)c1ccc(NC(=O)C[n+]2ccccc2C)cc1,–,inactive: -9.82%
COC(=O)N/N=C(C)/C=C/c1ccccc1,–,inactive: -2.4%
O=[N+]([O-])c1ccccc1/C=C/CN1CCCCC1CO (stereo not given),–,inconclusive: 27.5% [activator]
CCC(C)c1ccc(NC(=S)NC(C)C2CCCO2)cc1 (stereo not given),–,inactive: -12.3%
O=C(C[C@H]1C/C=C/CC[C@H](Cc2ccc(F)cc2)C(=O)O[C@H](c2ccccc2)CNC1=O)NCCO,"inconclusive: 32.6 µM [activator, single point]",–
COc1cc(C)cc(C(=O)C=Cc2ccccc2)c1O,"inconclusive: 20.6 µM [activator, single point]",–
Cc1ccc(S(=O)(=O)NC(=O)N(CCC#N)Cc2ccccc2)cc1,–,inactive: -4.44%
COc1ccc(-c2nc(C#N)c(NCc3ccco3)o2)cc1,–,inactive: 0.86%
COc1ccccc1CNC(=O)CCNS(=O)(=O)c1ccc2[nH]c(=O)oc2c1,"inconclusive: 32.6 µM [activator, single point]",–
CCC(NC(C)C)C(O)c1ccc(O)c2[nH]c(=O)ccc12 (stereo not given),"inconclusive: 0.206 µM [activator, single point]",–

SMILES,Potency,re-replication activation
c1ccc(-c2cc3c(N4CCOCC4)ncnc3s2)cc1,"inconclusive: 23.1 µM [activator, partial curve, poor fit]",–
COc1ccc(NC(=S)N2CCCN(Cc3cc(C)ccc3C)C2)cc1,–,inactive: 1.82%
CCCC(=O)N(C1CC(C)C(C#N)(C#N)C1(C#N)C#N)N(C)C (stereo not given),active: 4.61 µM,–
CC(/C=C/C=C/c1ccccc1)=N\NC(=O)c1cccnc1,"inconclusive: 32.6 µM [activator, single point]",–
COc1ccc(NC(=S)NC(NC(=O)C(C)C)C(Cl)(Cl)Cl)c([N+](=O)[O-])c1 (stereo not given),"inconclusive: 23.1 µM [activator, partial curve, poor fit]",–
C=C(C(=O)c1ccccc1)C(C(=C)C(=O)c1ccccc1)c1ccc(OC)cc1,"inconclusive: 9.2 µM [activator, partial curve, poor fit]",–
CCCCCCCC(=O)OCC(O)CO (stereo not given),inactive,–
COc1ccc(/C=N/NC(=O)c2cccc([N+](=O)[O-])c2)cc1OC(=O)c1ccccc1,"inconclusive: 16.4 µM [activator, partial curve, poor fit]",–
COc1cccc(NC(=O)COc2coc(CN3CCN(c4ccccc4)CC3)cc2=O)c1,"inconclusive: 29.1 µM [activator, partial curve, poor fit]",–
Fc1ccc(Br)cc1C1C=C(c2ccc(Br)s2)Nc2ncnn21 (stereo not given),active: 0.58 µM,–
COc1ccn(C2CCCCO2)c(=O)n1 (stereo not given),–,inactive: -2.64%
COc1ccc(NC(=O)COc2cc(C)cc(C)c2)cc1S(=O)(=O)N1CCCCC1,active: 5.8 µM,–
CCN(CCNC(=O)C1CCN(Cc2nc(-c3ccc(Cl)cc3)oc2C)CC1)c1ccccc1,"inconclusive: 20.6 µM [activator, single point]",–
COc1ccc(C)cc1NC(=O)CN1c2cccc3cccc(c23)S1(=O)=O,–,inactive: 4.22%
Cc1ccc2[nH]c3c(c2c1)CCCC3NC(=O)CCl (stereo not given),active: 8.2 µM,–
O=C(c1ccc(Oc2ccccc2)cc1)C1CCCN(C(=O)c2cnccn2)C1 (stereo not given),–,inactive: -8.2%
O=C(CN1C(=O)c2ccccc2S1(=O)=O)N1CCN(c2ccc(F)cc2)CC1,–,inactive: -0.261%
C[C@]12CC[C@H](O)CC1=CCC1C2CC[C@@]2(C)C1CC[C@@H]2NC(=O)[C@@H](N)Cc1ccccc1 (stereo not given in full),"inconclusive: 29.1 µM [activator, single point]",–
Clc1ccsc1-c1ccnc(-n2cccc2)n1,"inconclusive: 0.0046 µM [activator, full curve, poor fit]",–
Cc1ccc(N2CCN(C(=O)c3cn(CC4CCCCC4)nn3)C(C)C2)cc1 (stereo not given),–,inactive: 21.2%
COc1ccc(CN2C(=O)N(c3ccccc3)C(=O)C2CC(=O)Nc2ccccc2)cc1OC (stereo not given),"inconclusive: 0.103 µM [activator, full curve, poor fit]",–
CC1=C(CO)C(=O)OC([C@@H](C)C2CC[C@H]3C4C[C@H]5O[C@]56[C@@H](O)C=CC(=O)[C@]6(C)C4CC[C@]23C)C1 (stereo not given in full),"inconclusive: 0.517 µM [activator, full curve, poor fit]",–
